Among the data in PubChem BioAssay AID1347423 (Functional Genomics Laboratory (NCATS/FGL), 2020) are z-score values, retold here.

Among all 52,000 sequences or so, about 210 (0.4%) were called active.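 How the source made its calls: active means gene whose silencing raises cell survival under the drug, median off-target-corrected z-score across its silencing RNAs 2 or more; inactive means the rest.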 This is one part of the list.

This assay in a line: Resistance to Poly (ADP-Ribose) Polymerase inhibitor: Gene Identification via Genome-wide siRNA Screen. The conditions noted are these: mouse BRCA2 R2336H ES cells, olaparib, CellTiter-Glo viability; hits give high values. An outline of the steps: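 Genome-wide siRNA screen (3 siRNAs/gene, 20 nM) in mouse ES cells carrying hypomorphic BRCA2 R2336H; olaparib 500 nM added 48 h post-transfection, CellTiter-Glo viability 72 h later. Normalized to plate-median negative control; MAD z-scores, gene median, seed-adjusted.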
(In ATP-based viability assays light output follows the ATP content of the culture.)
Take GGAAGUUCCACGUUAUUGUTT against Eif2b2: the z-score was inactive: 0.818.

As for GGCUUACGUGGUGUGCACUTT against Galr1, the z-score was inactive: -0.319.

As to GCUGGUCAAGUCCUUCUAGTT against Mrpl28, the z-score was inactive: 0.54.

For the sequence GCACUUAUGAUGUCCUAUUTT against Sema4b, the z-score is inactive: -0.68.

As for GAUCAACCUGAGCUCCAGUTT against Olfr25, the z-score was inactive: -0.622.

Take “GGCUUCAGACCCUCAAAAGTT against C230086A09Rik”: the z-score was inactive: 0.672.

With GCACAACAUGGAUUGGAAATT against Dhps, the z-score was inactive: -0.544.

In the case of GGAAAAUGAAAUCAUCGAGTT against Fuca1, the z-score is inactive: 0.465.

For “GGAACCUUCACGAUAACAGTT against 2810407A14Rik”, the z-score was inactive: -0.409.

In the case of “GGACAAUUACAUCCAGCCUTT against 2610528J11Rik”, the z-score is inactive: 0.381.

Regarding GGAAAUUAUCAAAGUGACATT against Camk2a, the z-score was inactive: -1.54.

Turning to CCUGGAGAAUUCGAAAAAATT against Grm8, the z-score is inactive: 0.0644.

Consider GGGACAUUUUCUUUCUAUUTT against Diap3, for which the z-score was inactive: 1.13.

Consider GGUUCUUGUUUGUUGUGGUTT against Olfr94, for which the z-score was inactive: 0.135.

As to GCAGUGUUUACUUAUCACGTT against Il10ra, the z-score is inactive: -0.108.

On to GGCUACAUUGUCUCAUUGUTT against Opn1mw, for which the z-score is inactive: -0.823.

For the sequence GCACAAUCUUGUCAAAUUGTT against Birc2, the z-score was inactive: 0.221.

For the sequence “GGAAGACCAUGUUUUAAAATT against 1810018L02Rik”, the z-score is inactive: 1.33.

Turning to CCUGGUGUAGAAGUAUAUUTT against Lcat, the z-score was inactive: 0.236.

With GGAAAUCUCUGGGAUAAUUTT against Hsd11b1, the z-score was inactive: 0.694.

As to GGAGACAAGCUAAUUGAGATT against Ppp1r8, the z-score is inactive: 2.72.

As for GGAUAUAACCAUCCUCUGUTT against AW125441, the z-score is inactive: -2.52.

As to GCUGCUGGAUGCAACCAAATT against Slc16a3, the z-score was inactive: -3.2.

Turning to CGUCGUAGCAAACCACCAATT against Tnf, the z-score is inactive: -1.84.

As to GGUAAAAACCAGACAGAUGTT against Olfr835, the z-score was inactive: 0.615.

With GGAUGUAAAACUCUUCUACTT against Depdc6, the z-score was inactive: -0.0393.

Regarding GACAUAUUUGGGUUUCUAATT against V1rc6, the z-score was inactive: 0.2.

In the case of GGAUAUGACUGAUAUUGAUTT against Il18, the z-score was inactive: 0.566.

Take GGUACUGGAGGGACUUAGATT against Apob48r: the z-score was inactive: 0.521.

As for CCGGUCACUUGAAAUCAUGTT against Spp2, the z-score was inactive: -0.431.

For GCAUUGAGUGCAUUAGAAUTT against Gnai1, the z-score is inactive: 0.103.

Consider GGGACUUCAAAAGCAAGAATT against Acvr2b, for which the z-score was inactive: -0.856.

On to “GCUUUAGGAAAUUUUGUGUTT against F630043A04Rik”, for which the z-score was inactive: -0.241.

Regarding GGGACUUGCCUUUCAUUCUTT against Acads, the z-score is inactive: -0.526.

As to “GCUCUGUCCAUUCCAUAAGTT against Cocoacrisp”, the z-score is inactive: 0.54.

As for “CGAUUUAAAGUAGUAGUGGTT against 0710001B24Rik”, the z-score is inactive: 1.69.

With CGCUGCUAAGAAUCAUCUATT against Ednrb, the z-score is inactive: 0.813.

As for GACUACAUUUAUAGCCCAATT against Olfr1262, the z-score was inactive: -0.91.

GGAAAAGUUAGCGUGUAAUTT against Prkcz: the z-score was inactive: 1.27.

With “GGAAAUUGUAAGAAGCGUATT against 1110001A07Rik”, the z-score was inactive: -0.609.

Take CCAUUAAUAUCUUCUCUUCTT against Olfr1079: the z-score is inactive: 0.566.

CGCAUCCAAGCUGAUAAAGTT against Stoml3: the z-score is inactive: -0.594.

Regarding “CCUGAUGCGUUACAACAACTT against D4Ertd196e”, the z-score was inactive: 1.85.

As for GGUCUUUUUAUCCCAUUGUTT against Olfr1298, the z-score is inactive: -2.03.

In the case of GGGAAGAUCACAUUUUCGCTT against Ephx2, the z-score is inactive: 0.933.

As for “CCAGCGAGAAUGAAAUUCCTT against 5730593N15Rik”, the z-score is inactive: 0.942.

ACACUCCUAAAUUGAUCAUTT against Olfr1258: the z-score was inactive: -0.297.

For CCUCAUCAAUUGGUUAGAATT against Brip1, the z-score was inactive: 0.389.

Take CGGCAAAUUCGUGAAAAGGTT against Olfr575: the z-score is inactive: -0.0403.

As to GGAACCUCUCAGAUUUUCATT against BC050092, the z-score was inactive: -0.625.

As for GGGCAUGCCCAAGAGAAUATT against Tcp1, the z-score was inactive: -2.57.

As to GCUGACACAUUUUCACAUGTT against Itgax, the z-score is inactive: 0.886.

“GGAAAGAAACAAAGAAUGATT against 9930117H01Rik”: the z-score is inactive: -0.178.

For the sequence “GCUGAACUGUCUCAGCUCATT against 4930429O20Rik”, the z-score was inactive: 1.24.

Turning to CCAGCGAACAAAAUGAGGATT against Dusp23, the z-score was inactive: -0.143.

In the case of GGGCUGAGGAGAAAAUGCATT against Gtl2, the z-score is inactive: -0.152.

With “GGUAGGUCGUCGAGAAUACTT against 1700036D21Rik”, the z-score is inactive: -1.1.

Regarding AGCAGAAAAAGGAAGGCCATT against Xlr3b, the z-score was inactive: 1.27.

In the case of GCAGUUCGAAUGGAGUGGUTT against Ube2v1, the z-score is inactive: 0.0143.

GUCCUCAUCGGUCUGUUUATT against Mb: the z-score is inactive: 0.255.

As for GGAUUUCCAGGUUAUUUUCTT against Csnb, the z-score was inactive: 0.139.

Turning to “CGAUAGUAAAAGAAAGCUATT against 8430416H19Rik”, the z-score is inactive: -1.51.

GGAACUUACAAGUAUCAGATT against Bhlhb5: the z-score is inactive: -0.645.

In the case of GCAGCAGACACUCUGUACATT against Pcbp4, the z-score was inactive: 0.884.

For “CCUCUCAUGAUGUUACCACTT against 5031414D18Rik”, the z-score is inactive: 1.12.

As for GGAAUUUUCUAUAGUCCGGTT against Flrt2, the z-score is inactive: 0.268.

With GCUGUUCUCGCCUAUGCAATT against Dll4, the z-score is inactive: 1.11.

For CCCUGCUAAAAUCGACCUGTT against BC052360, the z-score is inactive: 0.603.

Turning to GCACGAGAGACAUUUCUCCTT against Myst2, the z-score is inactive: -0.416.

In the case of “GGACAAAGACCAGUCAUUCTT against 4921504I05Rik”, the z-score is inactive: 0.764.

On to “GGGAGGAGAGUGAUUGAGATT against A730013G03Rik”, for which the z-score was inactive: 1.46.

Turning to “CCUAUUAAGCUCAACAAGCTT against E030002O03Rik”, the z-score is inactive: -0.474.

“GGACGUAGAAAUGAAACCATT against 2410004F06Rik”: the z-score was inactive: -0.18.

For the sequence GCCUUCAGUACUGAUACCCTT against E2f2, the z-score was inactive: 1.09.

For the sequence “GGUCCUGAUGUUGAAGGCATT against 5830482F20Rik”, the z-score was inactive: -2.06.

With GGCCUGGAAGAUGAAGAUGTT against Arid3b, the z-score was inactive: 2.65.

Regarding GGGAUUAUCUGAGAUGGAUTT against Btbd1, the z-score is inactive: -0.773.

Turning to GGAAGAGAAAAGGAAGAAATT against Ankrd23, the z-score is inactive: -0.772.

As for GGAAUUGUACAAAUGACCUTT against Adam29, the z-score is active: -0.0465.

For the sequence UUUAAGGACCUUGUAAGAATT against Olfr813, the z-score was inactive: 1.4.

GGACCUUCUUCAAGAAAGUTT against Olfr430: the z-score was inactive: -0.266.

In the case of UCCCUAACGGCCCUUUUUATT against Hist2h4, the z-score was inactive: -0.609.

As for “CCGUACCGAAUCCUUUAUCTT against 4933431N12Rik”, the z-score is inactive: -0.413.

In the case of GGAUAUAAAUGACAACUCGTT against Pcdhb5, the z-score was inactive: 0.598.

As for GGGUAUAAGAGACAAGUAUTT against Cplx1, the z-score was inactive: -1.97.

Regarding GCCUUACCGUCGAGGGUUUTT against Ppap2b, the z-score is inactive: -1.56.

As for “GGUGGACAGAUUUAAGCUUTT against 5830457O10Rik”, the z-score is inactive: -0.535.

GGAUACCAUUGUGGUCGCATT against Hck: the z-score is inactive: -0.618.

As for GGAGGAUGGUUUCAAUUCUTT against Pdha2, the z-score was inactive: 0.0881.

For the sequence “GCUCUAUGAGAGUAUAUUATT against 1500001M20Rik”, the z-score is inactive: -0.647.

As for GGUGUACAACGUAUUCAUATT against Suv39h1, the z-score was inactive: 0.525.

In the case of GCCUUAACUAUGUUGUCUATT against Mgst1, the z-score is inactive: -0.976.

As to GGCAUCCACCCUAAGGUCATT against Keap1, the z-score was inactive: 0.252.

GCAGAGUUACAAGCUUUUATT against Diap3: the z-score is inactive: -0.806.

As to GGAAGAGCAGGAGGAAACATT against Mea1, the z-score is inactive: -1.24.

Consider “CGAGCUAAAUUUCAAGAACTT against 1700008I05Rik”, for which the z-score is inactive: 0.781.

“CCUUGGAACCUUUAGUUAATT against 2500002L14Rik”: the z-score was inactive: -0.128.

Take GGUCAUGACUGGUGUGUCATT against Allc: the z-score is inactive: -2.72.

On to GGCCAACUUCGAAGAAAAGTT against Mrpl52, for which the z-score is inactive: -0.09.

Consider GGAAAGAAGGACAAAUAAUTT against Spg20, for which the z-score was inactive: -1.22.

Consider CCAAAACCUAACUUGAAGATT against Rad51ap1, for which the z-score is inactive: 1.04.

Take GCUCAUAAAUAAAAAGACGTT against Mcm6: the z-score is inactive: 0.267.

With GGUCAAGAAGAGUAUAGUGTT against Hras1, the z-score is inactive: -0.346.
